Some compounds share one wording; it may come from a single statement.
tested on: streptozotocin-induced diabetic retinopathy in Long Evans rats; experiment: Diabetic retinopathy rat model (streptozotocin, high fat diet), eye drops; assay type: in vivo; settings: STZ, once daily eye drops from week 14 (idebenone 10 mg/ml, UTA37 4.6 mg/ml, UTA77 7.36 mg/ml), compared to control rats

Compound	Systemic blood glucose levels (in words)
COC1=C(OC)C(=O)C(CCCCCCCCCCO)=C(C)C1=O [Idebenone, idebenone, reference compound]	did not significantly alter systemic blood glucose levels
COc1ccc(CCNC(=O)CCCC2=C(C)C(=O)c3ccccc3C2=O)cc1OC [UTA #77, N-(3,4-dimethoxyphenethyl)-4-(3-methyl-1,4-naphthoquinone-2-yl)butanamide]	did not significantly alter systemic blood glucose levels
CC1=C(CCCC(=O)N[C@@H](Cc2ccccc2)C(=O)O)C(=O)c2ccccc2C1=O [UTA #37, (S)-2-(4-(3-methyl-1,4-naphthoquinone-2-yl)butanamido)-3-phenylpropanoic Acid]	did not significantly alter systemic blood glucose levels
